This note sets out measurements from patent publication US20250353895A1, “METHOD FOR ANALYZING G-PROTEIN CONJUGATED RECEPTOR” (Kao Corporation, priority 2022, published 2025).

In this data set the test system is HEK293 cells. As to the kind of experiment: Measurement of receptor protein level on cell membrane (flow cytometry), receptor gene co-transfected with RTP1S. It is filed as cell-based, human. Particulars: consensus receptor on HEK293 cells; PE signal normalised, NC (no receptor) 0%, PC (FLAG-M2 acetylcholine receptor) 100%; average of three experiments. For orientation: Flow cytometry measures light scatter and fluorescence of single cells or particles in a stream.

B1: consensus TAS2R45: consensus GPCR of human TAS2R45 (protein)
chain: MITFLPIIFSILVVVTFVIGNFANGFIALVNSTEWVKRQKISFADQILTALAVSRIGLLWVLLLHWYSIVLNPAFYSVEVRITTYNVWAVTSHFSNWLATSLSIFYLLKIANFSNLIFLHLKRRVKSVILVMLLGPLLFLPCHLFVINMNQIVQTKEYEGNMTWKIKLRRTMFLSDTTVTMLANLVPFTLTLISFLLLICSLCKHLKKMQLHGKGSQDPNTKVHIKALQTVISFLLLCAIYFVFVTISVWSFQTLDNNPVFMFCQAITFSYPSAHPFILIWGNKKLKQTFLSVLWQVRYWVKGQKPSSP
On to B1, for which the “Consensus Membrane expression level (%)” value was found to be 0.37%.

B2: consensus TAAR5: consensus GPCR of human TAAR5 (protein)
chain: MRAVFIQGAEEHPAAFCYQVNGSCPRTVHPLGIQLAIYLACAAGMLITVLGNLFVVFAVSYFKALHTPTNFLLLSLALADMLLGLLVLPLSTIRSVESCWFFGDFLCRLHTYLDTLFCLTSIFHLCFISIDRHCAICDPLLYPSKFTVRVALRYILAGWGVPAAYTAFFLYTDVVETGLSQWLEEMPCVGSCQLLFNKFWGWLNFPVFFFPCLIMISLYVKIFVVATRQAQQITTLSKSLAGAAKRERKAAKTLGIAVGIYLLCWLPFTIDTMVDSLLNFITPPLVFDIFIWFAYFNSACNPIIYVFSYRWFRKALKLTLSQKIFSPRTRTVDLYQE
Turning to B2, the “Consensus Membrane expression level (%)” value was 34.52%.

B3: consensus TAS2R16: consensus GPCR of human TAS2R16 (protein)
chain: MIPIQLTVFFMIIYVLESLTIIVQSSLIVAVLGREWVQVRRLSPVDMILISLGICRFCLQWASMLYNFCSYFNPNYVFWYLTITWEFTNILTFWLTSLLAVFYCVKVSSFTHPIFLWLRWRILRLVPWLLLGSLMISCVTIIPSAIGNYIQIQLITMEHLPRNSTVTERLENFHQYFFQAHKTVALVIPFLLFLASTILLMASLTQHLEQMQHHSTGHCNSSMKAHFTALRSLAVFLIFFTSYFLTILISIIGTLFDKRSWFWVWEAFIYAFVSIHSTSLMLSSPTLKRVLKGKC
As to B3, the “Consensus Membrane expression level (%)” value is listed as 49.31%.

B4: consensus TAAR2: consensus GPCR of human TAAR2 (protein)
chain: MYSFMAGAIFITVFGNLAMIISISYFKQLHTPTNFLILSMAVTDFLLGFTIMPYSMIRSVENCWYFGLTFCKIHYSFDLMLSITSIFHLCSVAIDRFYAICYPLLYSTKMTIPVIKRLLLLCWSVPGAFAFGVVFSEAYADGIEGYDILVACSSSCPVMFNKLWGTTLFMAGFFTPGSVMVGIYGKIFAVSRKHARAINNLPENQNNQMRKDKKAAKTLGIVMGVFLLCWFPCFFTILLDPFLNFSTPVVLFDALTWFGYFNSTCNPLIYGFFYPWFRRALKYILLGKIFSSHFHNTNLFTQKETE
As for B4, the “Consensus Membrane expression level (%)” value was 0.25%.

B5: consensus TAS2R42: consensus GPCR of human TAS2R42 (protein)
chain: MATGLDKIFLILAIAEFIIGMLGNVFIGLVNCSEWVKNQKVSSADFILTCLAISRIGQLLVILFDSFLVGLAPHLYTTYRLGKTVIMLWHMTNHLTTWLATCLSIFYFLKIAHFSHSLFLWLRWRMNRVILMLLILSLFLLIFDSLLLEIFIDISLNYIIDKSNLTLYLDESKTLYDKLLILLSLTYFIPFSLSLTSLLLLFLSLVRHTRNLQLNSLGSRDSSTEAHKRAMKMVMSFLFLFIVHFFSLQLANWIFFMLWNNKCIKFVMLALNAFPSGHSFILILGNSKLRQTALRLLWHLRNYLKTPNPLPL
In the case of B5, the “Consensus Membrane expression level (%)” value was 2.95%.

B6: consensus TAS2R46: consensus GPCR of human TAS2R46 (protein)
chain: MITFLPIIFSILIVVTFVIGNFANGFIALVNSIEWVKRQKISFADQILTALAVSRVGLLWVLLLHWYATEFNLAFYSIEVRITAYNVWAVTNHFSNWLATSLSIFYLLKIANFSNLIFLHLKRRVKSVILVILLGPLLFLVCHLFVINMNQIVQTKEYEGNMTWKIKLRSAMYLSNMTVTMLANFVPFTLTLISFLLLICSLCKHLKKMQLHGKGSQDPSTKVHIKALQTVTSFLLLCAIYFLSIIMSVWSFESLENKPVFMFCQAIAFSYPSTHPFILIWGNKKLKQTFLSVLWHVRYWVKGQKPSSS
Regarding B6, the “Consensus Membrane expression level (%)” value was 16.38%.

B7: consensus TAS2R8: consensus GPCR of human TAS2R8 (protein)
chain: MFSPEDNIFIIIITGEFIIGILGNGYIGLVNWIDWIKKKKISSIDYILTSLAISRICLICVMVLNGIIIVLYPDVYTNNKLQIVIFTFWTFANYLSMWFATCLNVFYFLKIANFSHPLFLWLKWRIDRVVHWILLGCLAISLLVSLIAAIVLSCDYRFHKIAKHKRNITEMFHVSKIQYFEPLTLFNLLAIVPFTVSLISFFLLIRSLWRHTKQMKLYVTGCRDPSTEAHVRAMKTMTSFLFLLFVYYISSLLMTFSYLMKEYKLAVMFGEIIAILYPSGHSLILIILNNKLRQASVRMLTCRKIACMM
With B7, the “Consensus Membrane expression level (%)” value was 53.59%.

B8: consensus TAS2R38: consensus GPCR of human TAS2R38 (protein)
chain: MLTLTPIRTVSYEVKSTFLFLSVLEFAVGILTNAFIFLVNFWDVVRRQPLSNCDLVLLCLSITRLFLHGLLFLDAIQLTHFQKMKDPLSHSYQTIIMLWMIANQANLWLATCLSLLYCSKIVRFSHTFLLCLASWVSRKIPQMLLGAILFSCICTVLCLWDFFSRSHFTVTTVLFMNNNTELNLQIKKLNFFYSFLFCYLGSIPPFLLFLVSSGVLIVSLGRHMRTMKAYTRDSRDPSLEAHIKALKSLVSFLCFYVVSFCAALISVPLLILWHNKIGVMVCVGIMAACPSGHAAILISGNAKLRRAVMTILLWAQSSLKVRADHKADPRTPDLC
Regarding B8, the “Consensus Membrane expression level (%)” value turned out to be 14.21%.

B9: consensus TAAR1: consensus GPCR of human TAAR1 (protein)
chain: MPFCHNIINISCVKSSWSNDVRASLYSLMVLIILTTLVGNLIVIISISHFKQLHTPTNWLIHSMATVDFLLGCLVMPYSMVRSVEHCWYFGEVFCKIHTSTDIMLSSASIFHLSFISIDRYYAVCDPLRYKAKINILVICVMIFISWSVPAVFAFGMIFLELNFKGAEEIYYKHVHCRGGCSVFFSKTSGVLAFMTSFYIPGSIMLCVYYRIYLIAKEQARSISDANQKLQIGLEMKNGISQSKERKAAKTLGIVMGVFLICWCPFFICTVMDPFLHYIIPPTLNDALIWFGYLNSTFNPMVYAFFYPWFRRALKMILFGKIFQKDSSRCKLFLE
For the molecule B9, the “Consensus Membrane expression level (%)” value turned out to be 90.97%.

B10: consensus VN1R5: consensus GPCR of human VN1R5 (protein)
chain: MLKLVIIENMAEIMLFSLDLLLFSTDILCFNFPSKMIKLPGFITIQIFFYPQASFGISANTILLLFHIFTFVFSHRSKSIDMIISHLSLIHILLLFTQAILVSLDFFGSQNTQDDLRCKVIVFLNKVMRGLSICTPCLLSVLQAIISPSIFSLAKLKHPSASHILGFFLFSWVLNMFIGVIFCCTLRLPPVKRGQSSVCHTALFLFAHELHPQETVFHTNDFEGCHLYRVHGPLKRLHGDYFIQTIRGYLSAFTQPACPRVSPVKRASQTILLLVSFVFIYWVDFTFSFSRGVTWINDSLLVWFQVIVANSYATISPLMLIYADNQIFKTLQMLWFKYLSPPKLMLKFNRQCGSTKK
As for B10, the “Consensus Membrane expression level (%)” value was determined as 0.31%.
